PubChem BioAssay AID743121, NCATS – 2013
Shown is an unselected part of about 26,000 deposited reagents. Over the whole deposit, 167 (0.63%) got an active call. 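Calls are per gene from RSA p-values that are not deposited; an individual active-marked siRNA can sensitise only weakly.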 Further read-outs or replicates are left out here.

- Assay: 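Partners whose loss is lethal together with topoisomerase I blockade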 (primary screen)
- Cells: MDA-MB-231 cells, a human breast cancer line
- Knock-down reagent: single siRNA against human genes, 20 nM siRNA (0.8 pmol per well)
- Duration: 120 h (drug added 48 h after transfection, read 72 h later)
- Challenge: camptothecin 20 nM (about EC30) for 72 h; vehicle 0.1% DMSO in parallel plates
- Measured: 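Cell viability by ATP luminescence (CellTiter-Glo) as % of non-targeting siRNA wells, and the log2 ratio of viability without drug over viability with camptothecin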
- Reading the numbers: log2 vehicle/camptothecin viability: higher = stronger sensitisation to camptothecin
- Active means: 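Each gene scored by redundant siRNA activity (RSA) over its individual siRNA ratios; a gene is called active at p < 0.001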

After knock-down of PTTG2 [SID164413151] the results were log2 vehicle/camptothecin viability 0.567; inactive.
After knock-down of PTTG2 [SID164413152], the record shows log2 vehicle/camptothecin viability -0.583; inactive.
PTTG2 [SID164413155] showed log2 vehicle/camptothecin viability -0.286; inactive.
PTTG2 [SID164413156] showed log2 vehicle/camptothecin viability 0.00111; inactive.
AGER [SID164352749] scored log2 vehicle/camptothecin viability -0.315; inactive.
AGER [SID164352751] scored log2 vehicle/camptothecin viability 0.0351; inactive.
For AGER [SID164352753], the values are log2 vehicle/camptothecin viability -0.388; inactive.
AGER [SID164352754] gave log2 vehicle/camptothecin viability 0.336; inactive.

Sorted by “log2 vehicle/camptothecin viability” (ascending): 2 of the entries above
AGER [SID164352753] → log2 vehicle/camptothecin viability = -0.388; Outcome = inactive
AGER [SID164352751] → log2 vehicle/camptothecin viability = 0.0351; Outcome = inactive

More reagents:
After knock-down of KCNS1 [SID164372611], the record shows log2 vehicle/camptothecin viability -0.199; inactive.
For KCNS1 [SID164372612], the entry reads log2 vehicle/camptothecin viability -0.406; inactive.
For KCNS1 [SID164372613] the deposit lists log2 vehicle/camptothecin viability 0.0518; inactive.
Against KCNS1 [SID164372614], the values are log2 vehicle/camptothecin viability -0.111; inactive.
Silencing of GPBAR1 [SID164576347] gave: log2 vehicle/camptothecin viability 0.281; inactive.
After knock-down of GPBAR1 [SID164576349], the screen gave log2 vehicle/camptothecin viability -0.571; inactive.
Knock-down of GPBAR1 [SID164576350] gave: log2 vehicle/camptothecin viability -0.432; inactive.
GPBAR1 [SID164576351] scored log2 vehicle/camptothecin viability -0.342; inactive.
With knock-down of CCND1 [SID164355104], the record shows log2 vehicle/camptothecin viability -0.254; inactive.
Against CCND1 [SID164355105], the entry reads log2 vehicle/camptothecin viability -0.149; inactive.
CCND1 [SID164355107] scored log2 vehicle/camptothecin viability -0.158; inactive.
CCND1 [SID164355108] showed log2 vehicle/camptothecin viability 0.0306; inactive.
CSNK2A2 [SID164360156] showed log2 vehicle/camptothecin viability -0.561; inactive.
Silencing of CSNK2A2 [SID164360159] gave: log2 vehicle/camptothecin viability -0.156; inactive.
After knock-down of CSNK2A2 [SID164360161], the record shows log2 vehicle/camptothecin viability 0.207; inactive.
Silencing of CSNK2A2 [SID164360162] resulted in: log2 vehicle/camptothecin viability -0.228; inactive.
